Experimental data published in the supplement of paper PMC6078165.
The reference is the same well before dosing, and untreated signal decays as well.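 Fibroblast labels denote human fibroblasts, mainly primary ones from uterus (C12385, HUF), lung (H6013), bone (Hs27A), adrenal (HADF) and skin (WS1), plus mammary HMF and breast cancer-associated Hs343T. Cancer cells are basal-like or mesenchymal-like triple-negative breast cancer lines. A hit is a response shift exceeding 3x replicate standard deviation. The tissue of the other fibroblasts is not given here.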

System: BT20
Experiment: relative JC-1 red fluorescence (viability) vs pre-drug, coculture with fibroblast (fraction); higher = more viable cancer cells
Protocol: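 JC-1 labelled TNBC cells cocultured 1:1 (1,500 cells each) with CellTrace Violet stained primary or stromal fibroblasts in 384-well plates in FluoroBrite medium, treated with one of 42 anticancer drugs at 0.1, 1, 10 or 100 uM. JC-1 red fluorescence (mitochondrial integrity in cancer cells only) was read by plate reader every 8 h for 72 h. Values are normalised to each well's pre-drug value. The stock of one drug was tenfold lower, so its dose labels may be too high.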

CCN(CC)CCNC(=O)c1c(C)[nH]c(/C=C2\C(=O)Nc3ccc(F)cc32)c1C [Sunitinib]
relative JC-1 red fluorescence
Settings | 8 h | 16 h | 24 h | 32 h | 40 h | 48 h | 56 h | 64 h | 72 h
0.1 µM, coculture fibroblast: C12385 | 0.8559 | 0.808 | 0.79114 | 0.7383 | 0.675 | 0.657 | 0.6427 | 0.6397 | 0.6246
0.1 µM, coculture fibroblast: H6013 | 0.945 | 0.809 | 0.783 | 0.851 | 0.746 | 0.785 | 0.76 | 0.848 | 0.835
0.1 µM, coculture fibroblast: H6019 | 0.8635 | 0.823 | 0.82 | 0.768 | 0.724 | 0.702 | 0.671 | 0.64 | 0.619
0.1 µM, coculture fibroblast: H6076 | 0.833 | 0.9068 | 0.854 | 0.836 | 0.813 | 0.794 | 0.792 | 0.789 | 0.783
0.1 µM, coculture fibroblast: H6231 | 0.833 | 0.899 | 0.835 | 0.776 | 0.727 | 0.677 | 0.643 | 0.613 | 0.592
0.1 µM, coculture fibroblast: HADF | 0.956 | 0.914 | 0.886 | 0.839 | 0.823 | 0.787 | 0.773 | 0.757 | 0.732
0.1 µM, coculture fibroblast: HCFa | 0.9096 | 0.87769 | 0.863 | 0.799 | 0.756 | 0.723 | 0.699 | 0.682 | 0.647
0.1 µM, coculture fibroblast: HCPF | 0.915 | 0.958 | 0.92 | 0.885 | 0.869 | 0.838 | 0.812 | 0.82 | 0.794
0.1 µM, coculture fibroblast: HHSteC | 0.924 | 0.908 | 0.916 | 0.849 | 0.827 | 0.798 | 0.788 | 0.769 | 0.746
0.1 µM, coculture fibroblast: HMF | 0.976 | 0.904 | 0.811 | 0.761 | 0.732 | 0.689 | 0.657 | 0.627 | 0.603
0.1 µM, coculture fibroblast: HPFa | 0.902 | 0.867 | 0.876 | 0.814 | 0.819 | 0.789 | 0.774 | 0.762 | 0.724
0.1 µM, coculture fibroblast: HUF | 0.89 | 0.797 | 0.747 | 0.657 | 0.607 | 0.569 | 0.545 | 0.525 | 0.512
0.1 µM, coculture fibroblast: Hs5 | 0.837 | 0.9192 | 0.872 | 0.842 | 0.8 | 0.768 | 0.752 | 0.725 | 0.708
0.1 µM, coculture fibroblast: Hs27A | 0.904 | 0.849 | 0.917 | 0.902 | 0.854 | 0.841 | 0.819 | 0.787 | 0.741
0.1 µM, coculture fibroblast: Hs343T | 0.911 | 0.878 | 0.794 | 0.742 | 0.698 | 0.661 | 0.623 | 0.603 | 0.582
0.1 µM, coculture fibroblast: WS1 | 0.842 | 0.789 | 0.767 | 0.712 | 0.65 | 0.633 | 0.616 | 0.606 | 0.601
1 µM, coculture fibroblast: C12385 | 0.872 | 0.818 | 0.787 | 0.738 | 0.685 | 0.655 | 0.634 | 0.615 | 0.602
1 µM, coculture fibroblast: H6013 | 0.9082 | 0.875 | 0.846 | 0.806 | 0.782 | 0.769 | 0.767 | 0.748 | 0.732
1 µM, coculture fibroblast: H6019 | 0.8456 | 0.7989 | 0.7802 | 0.7122 | 0.656 | 0.637 | 0.595 | 0.564 | 0.541
1 µM, coculture fibroblast: H6076 | 0.9722 | 0.923 | 0.86 | 0.8258 | 0.8119 | 0.7858 | 0.769 | 0.7595 | 0.7405
1 µM, coculture fibroblast: H6231 | 0.832 | 0.9244 | 0.855 | 0.776 | 0.72 | 0.667 | 0.627 | 0.592 | 0.564
1 µM, coculture fibroblast: HADF | 0.906 | 0.907 | 0.952 | 0.869 | 0.866 | 0.902 | 0.939 | 0.94 | 0.951
1 µM, coculture fibroblast: HCFa | 0.9702 | 0.885 | 0.879 | 0.847 | 0.871 | 0.792 | 0.807 | 0.788 | 0.812
1 µM, coculture fibroblast: HCPF | 0.9126 | 0.981 | 0.911 | 0.86183 | 0.803 | 0.75 | 0.707 | 0.679 | 0.639
1 µM, coculture fibroblast: HHSteC | 0.906 | 0.888 | 0.878 | 0.831 | 0.808 | 0.779 | 0.778 | 0.756 | 0.732
1 µM, coculture fibroblast: HMF | 0.842 | 0.972 | 0.91 | 0.86 | 0.826 | 0.788 | 0.751 | 0.733 | 0.705
1 µM, coculture fibroblast: HPFa | 0.9269 | 0.928 | 0.955 | 0.896 | 0.888 | 0.856 | 0.849 | 0.827 | 0.779
1 µM, coculture fibroblast: HUF | 0.909 | 0.836 | 0.819 | 0.7588 | 0.727 | 0.69077 | 0.6844 | 0.672 | 0.6599
1 µM, coculture fibroblast: Hs5 | 0.859 | 0.934 | 0.872 | 0.821 | 0.776 | 0.744 | 0.716 | 0.682 | 0.643
1 µM, coculture fibroblast: Hs27A | 0.837 | 0.7389 | 0.887 | 0.881 | 0.842 | 0.798 | 0.869 | 0.856 | 0.779
1 µM, coculture fibroblast: Hs343T | 0.9855 | 0.9253 | 0.8542 | 0.797 | 0.7641 | 0.721 | 0.69 | 0.662 | 0.639
1 µM, coculture fibroblast: WS1 | 0.8209 | 0.769 | 0.743 | 0.698 | 0.657 | 0.638 | 0.617 | 0.597 | 0.581
10 µM, coculture fibroblast: C12385 | 0.947 | 0.924 | 0.894 | 0.847 | 0.8 | 0.758 | 0.742 | 0.708 | 0.68
10 µM, coculture fibroblast: H6013 | 0.71 | 0.9 | 0.806 | 0.714 | 0.594 | 0.496 | 0.453 | 0.366 | 0.332
10 µM, coculture fibroblast: H6019 | 0.899 | 0.91 | 0.928 | 0.905 | 0.891 | 0.885 | 0.88 | 0.865 | 0.73
10 µM, coculture fibroblast: H6076 | 0.824 | 0.85 | 0.873 | 0.71 | 0.578 | 0.504 | 0.442 | 0.413 | 0.352
10 µM, coculture fibroblast: H6231 | 0.752 | 0.707 | 0.817 | 0.656 | 0.557 | 0.489 | 0.388 | 0.333 | 0.27
10 µM, coculture fibroblast: HADF | 0.73 | 0.963 | 0.787 | 0.719 | 0.601 | 0.51 | 0.456 | 0.413 | 0.352
10 µM, coculture fibroblast: HCFa | 0.887 | 0.858 | 0.899 | 0.891 | 0.9077 | 0.86 | 0.859 | 0.886 | 0.835
10 µM, coculture fibroblast: HCPF | 0.819 | 0.814 | 0.806 | 0.664 | 0.551 | 0.471 | 0.394 | 0.349 | 0.309
10 µM, coculture fibroblast: HHSteC | 0.878 | 0.979 | 0.806 | 0.679 | 0.535 | 0.443 | 0.357 | 0.316 | 0.262
10 µM, coculture fibroblast: HMF | 0.847 | 0.868 | 0.883 | 0.938 | 0.881 | 0.839 | 0.778 | 0.725 | 0.646
10 µM, coculture fibroblast: HPFa | 0.967 | 0.901 | 0.938 | 0.922 | 0.9 | 0.873 | 0.842 | 0.807 | 0.778
10 µM, coculture fibroblast: HUF | 0.9499 | 0.908 | 0.8959 | 0.845 | 0.817 | 0.791 | 0.762 | 0.719 | 0.681
10 µM, coculture fibroblast: Hs5 | 0.795 | 0.862 | 0.838 | 0.724 | 0.743 | 0.71 | 0.669 | 0.629 | 0.594
10 µM, coculture fibroblast: Hs27A | 0.897 | 0.762 | 0.905 | 0.835 | 0.769 | 0.622 | 0.53 | 0.446 | 0.384
10 µM, coculture fibroblast: Hs343T | 0.817 | 0.773 | 0.903 | 0.921 | 0.864 | 0.816 | 0.757 | 0.719 | 0.677
10 µM, coculture fibroblast: WS1 | 0.919 | 0.895 | 0.885 | 0.852 | 0.824 | 0.808 | 0.792 | 0.778 | 0.777
100 µM, coculture fibroblast: C12385 | 0.342 | 0.167 | 0.158 | 0.123 | 0.0907 | 0.0924 | 0.0685 | 0.0527 | 0.0703
100 µM, coculture fibroblast: H6013 | 0.19 | 0.135 | 0.148 | 0.11 | 0.0983 | 0.0935 | 0.0882 | 0.0766 | 0.0576
100 µM, coculture fibroblast: H6019 | 0.24 | 0.175 | 0.187 | 0.153 | 0.137 | 0.137 | 0.115 | 0.105 | 0.0996
100 µM, coculture fibroblast: H6076 | 0.491 | 0.337 | 0.308 | 0.302 | 0.289 | 0.269 | 0.25 | 0.236 | 0.22
100 µM, coculture fibroblast: H6231 | 0.467 | 0.317 | 0.283 | 0.287 | 0.263 | 0.253 | 0.212 | 0.226 | 0.203
100 µM, coculture fibroblast: HADF | 0.296 | 0.18 | 0.178 | 0.144 | 0.122 | 0.123 | 0.103 | 0.0953 | 0.0706
100 µM, coculture fibroblast: HCFa | 0.33 | 0.181 | 0.185 | 0.147 | 0.128 | 0.133 | 0.123 | 0.108 | 0.0831
100 µM, coculture fibroblast: HCPF | 0.427 | 0.333 | 0.324 | 0.316 | 0.306 | 0.289 | 0.274 | 0.268 | 0.244
100 µM, coculture fibroblast: HHSteC | 0.261 | 0.174 | 0.188 | 0.141 | 0.117 | 0.105 | 0.0911 | 0.077 | 0.0539
100 µM, coculture fibroblast: HMF | 0.374 | 0.391 | 0.397 | 0.41 | 0.403 | 0.394 | 0.387 | 0.365 | 0.325
100 µM, coculture fibroblast: HPFa | 0.485 | 0.222 | 0.221 | 0.186 | 0.165 | 0.154 | 0.146 | 0.131 | 0.101
100 µM, coculture fibroblast: HUF | 0.415 | 0.208 | 0.203 | 0.159 | 0.14 | 0.123 | 0.109 | 0.0941 | 0.0863
100 µM, coculture fibroblast: Hs5 | 0.346 | 0.255 | 0.226 | 0.211 | 0.193 | 0.173 | 0.152 | 0.135 | 0.131
100 µM, coculture fibroblast: Hs27A | 0.431 | 0.338 | 0.404 | 0.375 | 0.349 | 0.374 | 0.37 | 0.369 | 0.355
100 µM, coculture fibroblast: Hs343T | 0.377 | 0.228 | 0.214 | 0.206 | 0.206 | 0.189 | 0.185 | 0.17 | 0.159
100 µM, coculture fibroblast: WS1 | 0.176 | 0.14 | 0.149 | 0.114 | 0.0924 | 0.0928 | 0.0734 | 0.0829 | 0.0786
